Laboratory results taken from PubChem BioAssay AID540256 (National Center for Advancing Translational Sciences (NCATS), 2011).
About 3,700 (1.2%) of roughly 300,000 compounds were called active. The shares of active, inactive and inconclusive entries below differ from those in the screen. Calls follow the shape of the full dose curve; tested in HEK293 cells. Where the call is inconclusive, the potency comes from a doubtful curve fit.
% is scaled to controls: 0 for no effect and ±100 for the full control effect; potency is read from the fitted curve at half-maximal effect.

Assay: qHTS for Inhibitors of binding or entry into cells for Lassa Virus; also: nearly all actives have a fitted effect of over 50% in size
Details: Lassa virus pseudotype entry inhibition, cell reporter; activity change, negative = inhibition: at 37.9 µM (top of the series) unless noted
With Cc1cccc(C(=O)N2CCCC(c3nc(-c4ccc(C)o4)no3)C2)c1 (stereo not drawn) the “activity change, negative = inhibition” value was inactive: 24.9% [at 46.1 µM].
For Cc1cc(N/C=C(\C#N)S(=O)(=O)c2ccccc2Cl)nc(C)n1, the “activity change, negative = inhibition” value was inactive: -19.9%.
For Cc1ccc(Cn2nnc3c(=O)[nH]c(C4CCN(S(=O)(=O)c5ccc(C)cc5)CC4)nc32)cc1, the Potency was inconclusive: 25.9 µM [inhibitor, partial curve].
With Cc1cc(C)c(OCC(=O)Nc2ccc(S(=O)(=O)N3CCCC3)cc2)c(C)c1 the Potency was inconclusive: 0.1 µM [activator, full curve, poor fit].
In the case of CN(C)N1C(N)=C(C#N)C(c2ccc(Cl)cc2)C2=C1CCCC2=O (stereo not drawn), the Potency is reported as inconclusive: 0.631 µM [inhibitor, partial curve, poor fit].
In the case of CCCCC(=O)N1CCc2cc(OC)c(OC)cc2C1COc1ccc(OC)cc1 (stereo not drawn), the “activity change, negative = inhibition” value is reported as inactive: -14.6% [at 46.1 µM].
In the case of Cc1cc(C)c2c(c1)c(C)cc1nnc(SCC(=O)c3ccc(F)cc3)n12, the “activity change, negative = inhibition” value is reported as inactive: 1.77% [at 46.1 µM].
For O=C(Nc1nc2ccccc2s1)c1c(F)cccc1Cl, the Potency was inconclusive: 1.12 µM [activator, full curve].
With Cc1cccc(NC(=O)CSc2nnc(-c3ccco3)c(-c3ccco3)n2)c1C the Potency was inconclusive: 1.26 µM [inhibitor, single point].
In the case of Cc1ccc(N=Cc2c(O)n(C)c(=O)n(C)c2=O)nc1, the Potency is reported as inconclusive: 0.146 µM [inhibitor, full curve, poor fit].
For CSc1cccc(NC(=S)N2CCC(c3ccccc3)C2)c1 (stereo not drawn), the Potency was inconclusive: 5.62 µM [activator, partial curve, poor fit].
For O=C(Nc1cc(Sc2ccccn2)cc([N+](=O)[O-])c1)c1ccc(Cl)cc1, the Potency was inconclusive: 11.2 µM [inhibitor, partial curve, poor fit].
For CC(C)(C)NC(=O)C(c1ccc(O)cc1)N(C(=O)CCC(=O)Nc1nccs1)c1cccc(F)c1 (stereo not drawn), the “activity change, negative = inhibition” value was inactive: -0.234% [at 46.1 µM].
With COc1ccc(N2CCN(C(c3ccccc3F)c3sc4nc(-c5ccco5)nn4c3O)CC2)cc1 (stereo not drawn) the “activity change, negative = inhibition” value was inactive: 1.12% [at 46.1 µM].
For O=C(O)C/C(=C\c1cc(Cl)c2c(c1)OCO2)c1nc2ccccc2s1, the “activity change, negative = inhibition” value was inactive: 11.8% [at 46.1 µM].
With Nc1c(C(=O)Nc2cccc(F)c2)c2ccccn2c1C(=O)c1ccccc1 the “activity change, negative = inhibition” value was inactive: 18.1% [at 46.1 µM].
With COc1cc(C(=O)NNC(=O)/C=C/c2ccco2)cc(OC)c1OC the Potency was inconclusive: 6.31 µM [activator, single point].
In the case of Cc1ccc(Cn2c(NCCc3ccccc3)nc3c2c(=O)n(C)c(=O)n3C)cc1, the Potency is reported as inconclusive: 29.1 µM [inhibitor, single point].
With N#CC1(c2ccccc2)CCCN1C(=O)c1ccco1 (stereo not drawn) the Potency was inconclusive: 2.06 µM [activator, full curve].
With CCC(c1nnnn1Cc1cccs1)N1CCN(C2CCCC2)CC1 (stereo not drawn) the “activity change, negative = inhibition” value was inactive: 14%.
For COc1ccc(C2C=C(c3ccccc3)Nc3nc(NC(=O)/C=C/c4ccccc4Cl)nn32)cc1 (stereo not drawn), the Potency was inconclusive: 17.8 µM [inhibitor, single point].
With Cc1cccc(CCN(C(=O)c2csnn2)C(C(=O)NC2CCCC2)c2ccco2)c1 (stereo not drawn) the Potency was inconclusive: 14.1 µM [inhibitor, partial curve, poor fit].
In the case of NC(=O)Cc1ccc(C(=O)c2ccc(Cl)cc2Cl)s1, the “activity change, negative = inhibition” value is reported as inactive: 12.9% [at 46.1 µM].
With CN(C)CCSCc1nnc2n1-c1ccc(Cl)cc1C(c1ccccc1Cl)=NC2 the Potency was inconclusive: 35.5 µM [inhibitor, partial curve, poor fit].
With Cc1ccc(/C(N)=N/OC(=O)Cc2cccs2)cc1 the “activity change, negative = inhibition” value was inactive: 26.6%.
In the case of Cc1ncc(CO)c(/C=N/N=C/c2ccccc2O)c1O, the Potency is reported as inconclusive: 35.5 µM [inhibitor, single point].
In the case of Brc1ccc2nc(CSc3ncn[nH]3)cn2c1, the “activity change, negative = inhibition” value is reported as inactive: 8.94%.
In the case of Cc1c(C)c2c(OCC(=O)NCCCO)cc3c(c2oc1=O)CCC(C)(C)O3, the “activity change, negative = inhibition” value is reported as inactive: 5.7% [at 46.1 µM].
In the case of Cc1ccn2c(Nc3ccc(C(C)C)cc3)c(-c3cccnc3)nc2c1, the Potency is reported as inconclusive: 6.31 µM [inhibitor, full curve, poor fit].
With Cn1c(SCc2nc(-c3ccc(Br)cc3)no2)nnc1-c1ccco1 the Potency was inconclusive: 11.6 µM [activator, partial curve, poor fit].
For CCc1ccc(NC2=NCCCS2)cc1, the Potency was inconclusive: 12.6 µM [activator, single point].
For Cc1c(Cl)ccc2c1NC(=O)[C@]21N[C@@H](Cc2ccccc2)[C@H]2C(=O)N(c3ccc(F)cc3)C(=O)[C@H]21, the Potency was inconclusive: 35.5 µM [inhibitor, single point].
In the case of Cc1nn(-c2ccc(C(=O)OC(C)C)cc2)c(C)c1[N+](=O)[O-], the Potency is reported as inconclusive: 3.98 µM [activator, single point].
In the case of COc1ccc(CNC(=O)Nc2cn(CC(C)C)c(=O)c3ccccc23)cc1, the Potency is reported as inconclusive: 10 µM [activator, partial curve, poor fit].
With COCCN(CCOC)S(=O)(=O)c1ccc(C(=O)Nc2nc3c(s2)CCc2ccccc2-3)cc1 the Potency was inconclusive: 25.1 µM [inhibitor, single point].
With Cc1cc(Cl)ccc1OCC(=O)N1CCC(c2nc3ccccc3s2)CC1 the “activity change, negative = inhibition” value was inactive: 1.59% [at 46.1 µM].
In the case of COCCCN=Cc1c(C)[nH]n(-c2ccc(Br)c(C)c2)c1=O, the Potency is reported as active: 11.2 µM.
In the case of CCCCCOc1ccc(CSC(=N)N)cc1[N+](=O)[O-], the Potency is reported as inconclusive: 31.6 µM [inhibitor, single point].
With COc1ccc(CNC(=O)C(c2ccc(C)cc2)N(Cc2cccs2)C(=O)c2ccc3c(c2)OCCO3)cc1 (stereo not drawn) the Potency was inconclusive: 9.2 µM [inhibitor, partial curve, poor fit].
With COc1ccccc1C(=O)Nc1c(C(=O)Nc2ccccc2F)oc2ccccc12 the “activity change, negative = inhibition” value was inactive: -21.5% [at 46.1 µM].
In the case of O=C(C=Cc1ccco1)c1ccc([N+](=O)[O-])cc1, the “activity change, negative = inhibition” value is reported as inactive: 5.73% [at 46.1 µM].
In the case of Cc1nnc(SCc2ccc(F)cc2Cl)s1, the Potency is reported as inconclusive: 3.16 µM [activator, full curve, poor fit].
In the case of COc1ccccc1N1CCN(C2CCCN(Cc3ccc(Cl)cc3)C2)CC1 (stereo not drawn), the “activity change, negative = inhibition” value is reported as inactive: -26.1% [at 46.1 µM].
In the case of Cc1ccccc1Cn1cccc(C(=O)Nc2cc(Cl)ccc2C#N)c1=O, the Potency is reported as inconclusive: 35.5 µM [activator, single point].
For Cc1cccc(NC(=O)c2cccnc2)c1C, the “activity change, negative = inhibition” value was inactive: 6.34%.
With COc1ccccc1-c1nnc(SCC(=O)NCc2cccs2)n1N the Potency was inconclusive: 6.31 µM [inhibitor, single point].
For CN(C)CCNC(=O)C(=O)NCC(c1ccc2c(c1)OCO2)N1CCOCC1 (stereo not drawn), the Potency was inconclusive: 3.55 µM [activator, single point].
With CCC(OC(=O)c1ccco1)C(=O)NCc1ccco1 (stereo not drawn) the “activity change, negative = inhibition” value was inactive: -8.72%.
With CCN(CC)Cc1c(O)ccc2c(=O)c(-c3ccccc3OC)coc12 the Potency was inconclusive: 39.8 µM [activator, partial curve, poor fit].
With CCc1nn(CCCC(=O)N2CCN(c3cccc(OC)c3)CC2)c(=O)c2cc3occc3n12 the Potency was inconclusive: 6.31 µM [inhibitor, partial curve, poor fit].
In the case of C=CCOC(=O)C1=C(C)Nc2nnnn2C1c1ccc(OC)cc1OC (stereo not drawn), the Potency is reported as inconclusive: 0.73 µM [inhibitor, full curve, poor fit].
For Cc1ccc(C(=O)NCC(c2ccc3c(c2)OCO3)N2CCOCC2)cc1 (stereo not drawn), the “activity change, negative = inhibition” value was inactive: -3.69% [at 46.1 µM].
In the case of Cn1c(NCc2ccco2)nc2ccccc21, the “activity change, negative = inhibition” value is reported as inactive: 2.33%.
For COC(=O)c1cc(C)nc2c1c(=O)nc(SCc1ccccc1C)n2C1CC1, the Potency was inconclusive: 15.8 µM [inhibitor, partial curve, poor fit].
In the case of COC(=O)C1CCN(S(=O)(=O)c2ccc(N3CCCCS3(=O)=O)cc2)CC1, the Potency is reported as inconclusive: 35.5 µM [inhibitor, single point].
For C#CCOc1ccc(C2C3=C(COC3=O)Nc3cc4c(cc32)OCO4)cc1OC (stereo not drawn), the Potency was inconclusive: 1 µM [inhibitor, full curve, poor fit].
In the case of COc1ccc(CCn2c(=N)c(C(=O)NCC3CCCO3)cc3c(=O)n4cccc(C)c4nc32)cc1OC (stereo not drawn), the Potency is reported as inconclusive: 2.24 µM [inhibitor, partial curve, poor fit].
In the case of CCNC(=O)c1ccc(C2SCC(=O)N2CCc2ccccc2)cc1 (stereo not drawn), the Potency is reported as inconclusive: 29.1 µM [inhibitor, single point].
With Cc1nc(N2CCCCC2)sc1C(=O)c1cccc([N+](=O)[O-])c1 the “activity change, negative = inhibition” value was inactive: -23.3%.
With CC1=C(C(=O)OC2CCCCCCC2)C(c2cc3c(cc2Br)OCO3)CC(=O)N1 (stereo not drawn) the Potency was inconclusive: 3.66 µM [inhibitor, partial curve].
With Cc1ccc(NC(=O)N2CCN(c3cc(-c4noc(C)n4)ccc3C)CC2)c(F)c1 the Potency was inconclusive: 15.8 µM [inhibitor, single point].
For CCOC(=O)c1ccc(N(CC2CO2)S(=O)(=O)c2ccc(C)cc2)cc1 (stereo not drawn), the Potency was inconclusive: 14.1 µM [inhibitor, partial curve, poor fit].
In the case of Cc1cc(C)n2nc(SCC(=O)N/N=C/c3ccc(F)cc3)nc2n1, the Potency is reported as inconclusive: 3.26 µM [activator, partial curve, poor fit].
In the case of CCN(CCO)Cc1csc2ccc(C(C)(C)C)cc12, the Potency is reported as inconclusive: 11.6 µM [inhibitor, partial curve, poor fit].
For COc1ccc(C(=O)O)cc1S(=O)(=O)N1CCN(c2ccccn2)CC1, the Potency was inconclusive: 5.62 µM [inhibitor, single point].
In the case of CCOC(=O)c1nn(-c2ccc(Br)cc2)cc1C(=O)c1cccc2ccccc12, the Potency is reported as inconclusive: 7.3 µM [inhibitor, full curve, poor fit].
For CCCN1C(=O)/C(=C/c2cc(C)n(C)c2C)SC1=Nc1ccc(OC)cc1, the Potency was inconclusive: 10 µM [inhibitor, partial curve].
In the case of CCc1cccc(NC(=O)c2ccc(NC(=O)N3CCSc4ncccc43)cc2)c1, the “activity change, negative = inhibition” value is reported as inactive: -13.6% [at 46.1 µM].
